Measured values reported in patent US20230210852A1, “METHODS OF TREATING CANCER IN PATIENTS WITH AN ANOMALOUS KRAS GENE OR DELETIONS WITHIN CHROMOSOME 9” (Syros Pharmaceuticals, Inc., priority 2020, published 2023).
At least one structure is not confirmed: it was looked up by name or label, or the drawing left a doubt.

System: KRAS mutant cell line SW480 (G12V)
Assay: Growth rate inhibition of SW480 cells in culture
Type: cell-based
Conditions: after five days of treatment
Description: FIG. 3 is a graph illustrating the growth rate (GR) inhibition of cells of the KRAS mutant cell line SW480 upon exposure in cell culture to varying amounts of Compound 101 (downward triangles), trametinib (diamonds) and binimetinib (circles).

Compound: CC(=O)Nc1cccc(-n2c(=O)n(C3CC3)c(=O)c3c(Nc4ccc(I)cc4F)n(C)c(=O)c(C)c32)c1 [trametinib]
- type of response: cytostatic response
